Values quoted from earlier work in patent EP1509215B1, “TREATMENT OR PREVENTION OF UROGENITAL ATROPHY AND ITS SYMPTOMS IN WOMEN” (Hormos Medical Ltd., priority 2002, dated 2003).
For at least one compound, name, drawing or mass did not settle the structure.

Test system: vaginal epithelium
Conditions: known effect of estradiol, stated for comparison; cited from earlier work

## C[C@]12CC[C@@H]3c4ccc(O)cc4CC[C@H]3[C@@H]1CC[C@@H]2O [estradiol]
  increase in the karyopyknosis index for superficial cells: ~100
